# Test results published in paper PMC6383945, “Elk1 affects katanin and spastin proteins via differential transcriptional and post-transcriptional regulations”.
# Weaker means in comparison with the reference protein, sequence or condition of that experiment. Tags and fusion partners may be left off the protein sequences shown. The exact form of at least one protein or probe is not confirmed. At least one verdict was read from the data and is not stated in words by the source.
# Molecular target: T1, Elk1-db (ETS DNA-binding domain) (Homo sapiens) (UniProt P19419)
# T1 sequence (looked up): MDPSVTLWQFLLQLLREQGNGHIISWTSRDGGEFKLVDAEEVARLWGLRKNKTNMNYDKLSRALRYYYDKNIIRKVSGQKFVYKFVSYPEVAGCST
# Experiment: EMSA
# Conditions: 10 mM Tris pH 7.5, 50 mM KCl, 1 mM DTT, 1 ug poly(dI-dC), 5% glycerol, 1 mM EDTA, 0.3% BSA, protease inhibitors, 20 fmol probe, 300 ng Elk1-db, 20 min room temperature, recombinant protein, residues 1-96, protein details: 6xHis, label: 3' biotin on both strands
sequence,measurement,setting,value
"CGAGGTCGTCCCCGGCACCGGAAGTGACCCTGGCGGGTTTGT (double strand) [KATNA1_UTR1_WT, CpG methylated]",binding result,"CpG methylated probe, 5-methyl-C at CpG (M.SssI, all CpG, both strands)",binds more weakly
"CGGAGAGGACAGCGACAGGAAGGGAGG (double strand) [SPG4_WT_2 (-235/-226), CpG methylated]",binding result,"CpG methylated probe, same as unmethylated, 5-methyl-C at CpG (M.SssI, all CpG, both strands)",binds
CGGAGAGGACAGCGACAGGAAGGGAGG (double strand) [SPG4_WT_2 (-235/-226)],binding result,,binds
"TACGAAGGCTTCCTGGCAGGAGCTC (double strand) [SPG4_WT_1 (-451/-442), CpG methylated]",binding result,"CpG methylated probe, gel not shown, 5-methyl-C at CpG (M.SssI, all CpG, both strands)",binds
TACGAAGGCTTCCTGGCAGGAGCTC (double strand) [SPG4_WT_1 (-451/-442)],binding result,gel not shown,binds
